From paper PMC6376327
Results are given in words; binding and its absence hold for the method and conditions named. Some entries that bind do so weakly or less than the wild type.

Sequences of proteins named here, by UniProt entry; tags and fusion partners are left off. A change or cut given only in a name is not applied to a line headed by its entry. Residues count along the entry.
UniProt P01031: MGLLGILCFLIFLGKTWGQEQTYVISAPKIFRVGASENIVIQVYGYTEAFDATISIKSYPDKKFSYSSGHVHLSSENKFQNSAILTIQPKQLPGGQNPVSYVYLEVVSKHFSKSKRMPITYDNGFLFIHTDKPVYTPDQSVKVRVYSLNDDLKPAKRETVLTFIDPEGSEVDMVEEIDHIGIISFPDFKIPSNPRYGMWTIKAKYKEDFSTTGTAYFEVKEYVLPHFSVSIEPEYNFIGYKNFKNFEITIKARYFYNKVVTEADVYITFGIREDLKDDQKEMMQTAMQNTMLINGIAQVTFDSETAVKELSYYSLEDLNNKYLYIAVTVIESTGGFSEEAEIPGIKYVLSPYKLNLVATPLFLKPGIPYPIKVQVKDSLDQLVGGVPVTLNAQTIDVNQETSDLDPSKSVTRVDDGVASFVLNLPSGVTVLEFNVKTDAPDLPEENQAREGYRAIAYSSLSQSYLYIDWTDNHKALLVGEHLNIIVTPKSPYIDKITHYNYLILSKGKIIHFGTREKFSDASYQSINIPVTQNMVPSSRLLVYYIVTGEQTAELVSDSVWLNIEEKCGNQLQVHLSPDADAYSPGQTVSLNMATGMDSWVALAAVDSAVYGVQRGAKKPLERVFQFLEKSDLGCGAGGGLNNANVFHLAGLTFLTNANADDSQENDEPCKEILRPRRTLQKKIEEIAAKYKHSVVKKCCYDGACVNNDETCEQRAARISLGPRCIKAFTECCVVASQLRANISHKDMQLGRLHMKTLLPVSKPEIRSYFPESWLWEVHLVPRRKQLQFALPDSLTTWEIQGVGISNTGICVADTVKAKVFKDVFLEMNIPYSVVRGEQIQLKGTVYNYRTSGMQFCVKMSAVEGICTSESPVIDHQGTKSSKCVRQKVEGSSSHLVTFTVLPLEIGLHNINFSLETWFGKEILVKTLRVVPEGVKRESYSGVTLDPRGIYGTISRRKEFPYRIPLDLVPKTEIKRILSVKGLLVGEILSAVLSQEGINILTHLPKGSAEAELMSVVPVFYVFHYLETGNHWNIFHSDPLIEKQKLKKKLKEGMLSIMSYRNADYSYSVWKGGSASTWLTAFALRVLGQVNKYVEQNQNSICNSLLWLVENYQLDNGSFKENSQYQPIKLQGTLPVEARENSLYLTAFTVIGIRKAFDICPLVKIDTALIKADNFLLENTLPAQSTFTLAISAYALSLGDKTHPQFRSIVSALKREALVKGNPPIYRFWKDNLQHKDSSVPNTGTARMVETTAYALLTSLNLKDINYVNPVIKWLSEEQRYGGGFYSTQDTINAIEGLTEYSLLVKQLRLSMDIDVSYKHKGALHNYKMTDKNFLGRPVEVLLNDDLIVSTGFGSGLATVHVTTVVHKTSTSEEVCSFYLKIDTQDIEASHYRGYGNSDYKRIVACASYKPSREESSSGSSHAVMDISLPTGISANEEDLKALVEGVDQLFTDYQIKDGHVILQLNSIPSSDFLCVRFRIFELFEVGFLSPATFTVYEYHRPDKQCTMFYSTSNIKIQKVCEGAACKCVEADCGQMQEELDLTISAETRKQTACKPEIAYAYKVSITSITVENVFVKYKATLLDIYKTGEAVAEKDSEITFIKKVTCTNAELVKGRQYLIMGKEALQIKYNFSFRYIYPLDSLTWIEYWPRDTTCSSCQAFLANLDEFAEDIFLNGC
UniProt P02748, residues 22-559: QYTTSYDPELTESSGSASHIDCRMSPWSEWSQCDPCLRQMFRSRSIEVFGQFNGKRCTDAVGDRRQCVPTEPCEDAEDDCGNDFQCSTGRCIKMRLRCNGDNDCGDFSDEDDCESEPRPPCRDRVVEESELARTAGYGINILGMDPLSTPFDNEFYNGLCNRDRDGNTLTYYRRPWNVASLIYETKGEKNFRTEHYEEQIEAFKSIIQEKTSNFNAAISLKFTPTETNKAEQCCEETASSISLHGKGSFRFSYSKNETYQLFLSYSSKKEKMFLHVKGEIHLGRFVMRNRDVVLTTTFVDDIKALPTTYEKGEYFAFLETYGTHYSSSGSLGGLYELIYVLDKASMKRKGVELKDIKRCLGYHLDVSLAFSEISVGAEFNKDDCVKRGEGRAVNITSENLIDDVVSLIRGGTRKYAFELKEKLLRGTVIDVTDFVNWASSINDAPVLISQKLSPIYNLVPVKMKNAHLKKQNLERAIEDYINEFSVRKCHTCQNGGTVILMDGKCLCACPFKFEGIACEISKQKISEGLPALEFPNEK

Target: C5b-8 assembled on convertase-labeled E. coli from preassembled C5b6, C7 and C8 (UniProt P01031)
Assay: flow cytometry on cells; convertase-labeled E. coli exposed to a concentration range of preassembled C5b6 or of C5 and C6 with 100 nM C7; after washing, 20 nM C8 and 100 nM C9-Cy3 added; 37°C, RPMI + 0.05% HSA; C9-Cy3 on bacteria read by flow cytometry; control at 0 nM C5b6 or C5-C6; only the binder purified

binding: binds
Substance: C9-Cy3 (from UniProt P02748 22-559)
